# Reference: paper doi:10.1101/354316
# The chains behind the UniProt entries cited, without tags or fusion partners.
# UniProt Q96PX9: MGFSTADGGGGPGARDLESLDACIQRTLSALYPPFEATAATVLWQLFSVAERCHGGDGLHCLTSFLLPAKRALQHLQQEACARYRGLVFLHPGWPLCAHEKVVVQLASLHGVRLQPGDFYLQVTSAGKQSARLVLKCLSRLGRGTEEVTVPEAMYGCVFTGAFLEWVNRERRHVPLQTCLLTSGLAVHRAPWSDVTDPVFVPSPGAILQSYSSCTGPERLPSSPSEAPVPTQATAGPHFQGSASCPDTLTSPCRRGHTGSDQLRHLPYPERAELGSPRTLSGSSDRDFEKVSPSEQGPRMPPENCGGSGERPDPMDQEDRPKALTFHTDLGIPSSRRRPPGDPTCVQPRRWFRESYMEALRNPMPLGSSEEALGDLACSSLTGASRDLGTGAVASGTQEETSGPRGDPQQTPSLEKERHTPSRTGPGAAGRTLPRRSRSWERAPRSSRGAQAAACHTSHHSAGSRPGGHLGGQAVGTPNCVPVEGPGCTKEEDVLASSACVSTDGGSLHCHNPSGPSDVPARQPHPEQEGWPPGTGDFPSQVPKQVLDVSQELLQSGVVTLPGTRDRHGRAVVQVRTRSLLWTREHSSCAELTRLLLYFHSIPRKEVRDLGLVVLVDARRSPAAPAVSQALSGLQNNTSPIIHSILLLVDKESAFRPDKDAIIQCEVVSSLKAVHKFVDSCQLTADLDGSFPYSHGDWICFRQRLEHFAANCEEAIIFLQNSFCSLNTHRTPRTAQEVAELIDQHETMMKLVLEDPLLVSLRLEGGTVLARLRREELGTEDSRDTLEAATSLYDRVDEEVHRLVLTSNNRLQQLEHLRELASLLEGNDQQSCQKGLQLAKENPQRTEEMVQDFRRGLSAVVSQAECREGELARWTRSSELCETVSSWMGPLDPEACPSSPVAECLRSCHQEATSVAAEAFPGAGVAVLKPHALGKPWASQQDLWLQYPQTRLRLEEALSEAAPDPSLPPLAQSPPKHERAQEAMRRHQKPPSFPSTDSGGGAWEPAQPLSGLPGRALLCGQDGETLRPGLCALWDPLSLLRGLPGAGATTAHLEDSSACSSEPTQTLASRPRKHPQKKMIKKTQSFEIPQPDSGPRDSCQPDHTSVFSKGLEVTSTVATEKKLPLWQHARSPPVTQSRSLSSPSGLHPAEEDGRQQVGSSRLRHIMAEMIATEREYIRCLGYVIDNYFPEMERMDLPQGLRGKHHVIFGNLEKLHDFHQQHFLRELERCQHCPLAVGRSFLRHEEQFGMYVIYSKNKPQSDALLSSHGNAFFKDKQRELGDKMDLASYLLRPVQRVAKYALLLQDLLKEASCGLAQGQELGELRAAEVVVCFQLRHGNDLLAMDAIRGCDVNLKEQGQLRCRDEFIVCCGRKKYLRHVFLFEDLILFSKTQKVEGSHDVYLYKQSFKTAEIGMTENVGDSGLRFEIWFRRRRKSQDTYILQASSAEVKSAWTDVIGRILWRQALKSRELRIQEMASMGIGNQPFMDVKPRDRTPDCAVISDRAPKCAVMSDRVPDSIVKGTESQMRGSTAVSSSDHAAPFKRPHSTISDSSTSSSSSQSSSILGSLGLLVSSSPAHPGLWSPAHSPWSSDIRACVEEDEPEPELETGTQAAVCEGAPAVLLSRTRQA
# UniProt Q96N67: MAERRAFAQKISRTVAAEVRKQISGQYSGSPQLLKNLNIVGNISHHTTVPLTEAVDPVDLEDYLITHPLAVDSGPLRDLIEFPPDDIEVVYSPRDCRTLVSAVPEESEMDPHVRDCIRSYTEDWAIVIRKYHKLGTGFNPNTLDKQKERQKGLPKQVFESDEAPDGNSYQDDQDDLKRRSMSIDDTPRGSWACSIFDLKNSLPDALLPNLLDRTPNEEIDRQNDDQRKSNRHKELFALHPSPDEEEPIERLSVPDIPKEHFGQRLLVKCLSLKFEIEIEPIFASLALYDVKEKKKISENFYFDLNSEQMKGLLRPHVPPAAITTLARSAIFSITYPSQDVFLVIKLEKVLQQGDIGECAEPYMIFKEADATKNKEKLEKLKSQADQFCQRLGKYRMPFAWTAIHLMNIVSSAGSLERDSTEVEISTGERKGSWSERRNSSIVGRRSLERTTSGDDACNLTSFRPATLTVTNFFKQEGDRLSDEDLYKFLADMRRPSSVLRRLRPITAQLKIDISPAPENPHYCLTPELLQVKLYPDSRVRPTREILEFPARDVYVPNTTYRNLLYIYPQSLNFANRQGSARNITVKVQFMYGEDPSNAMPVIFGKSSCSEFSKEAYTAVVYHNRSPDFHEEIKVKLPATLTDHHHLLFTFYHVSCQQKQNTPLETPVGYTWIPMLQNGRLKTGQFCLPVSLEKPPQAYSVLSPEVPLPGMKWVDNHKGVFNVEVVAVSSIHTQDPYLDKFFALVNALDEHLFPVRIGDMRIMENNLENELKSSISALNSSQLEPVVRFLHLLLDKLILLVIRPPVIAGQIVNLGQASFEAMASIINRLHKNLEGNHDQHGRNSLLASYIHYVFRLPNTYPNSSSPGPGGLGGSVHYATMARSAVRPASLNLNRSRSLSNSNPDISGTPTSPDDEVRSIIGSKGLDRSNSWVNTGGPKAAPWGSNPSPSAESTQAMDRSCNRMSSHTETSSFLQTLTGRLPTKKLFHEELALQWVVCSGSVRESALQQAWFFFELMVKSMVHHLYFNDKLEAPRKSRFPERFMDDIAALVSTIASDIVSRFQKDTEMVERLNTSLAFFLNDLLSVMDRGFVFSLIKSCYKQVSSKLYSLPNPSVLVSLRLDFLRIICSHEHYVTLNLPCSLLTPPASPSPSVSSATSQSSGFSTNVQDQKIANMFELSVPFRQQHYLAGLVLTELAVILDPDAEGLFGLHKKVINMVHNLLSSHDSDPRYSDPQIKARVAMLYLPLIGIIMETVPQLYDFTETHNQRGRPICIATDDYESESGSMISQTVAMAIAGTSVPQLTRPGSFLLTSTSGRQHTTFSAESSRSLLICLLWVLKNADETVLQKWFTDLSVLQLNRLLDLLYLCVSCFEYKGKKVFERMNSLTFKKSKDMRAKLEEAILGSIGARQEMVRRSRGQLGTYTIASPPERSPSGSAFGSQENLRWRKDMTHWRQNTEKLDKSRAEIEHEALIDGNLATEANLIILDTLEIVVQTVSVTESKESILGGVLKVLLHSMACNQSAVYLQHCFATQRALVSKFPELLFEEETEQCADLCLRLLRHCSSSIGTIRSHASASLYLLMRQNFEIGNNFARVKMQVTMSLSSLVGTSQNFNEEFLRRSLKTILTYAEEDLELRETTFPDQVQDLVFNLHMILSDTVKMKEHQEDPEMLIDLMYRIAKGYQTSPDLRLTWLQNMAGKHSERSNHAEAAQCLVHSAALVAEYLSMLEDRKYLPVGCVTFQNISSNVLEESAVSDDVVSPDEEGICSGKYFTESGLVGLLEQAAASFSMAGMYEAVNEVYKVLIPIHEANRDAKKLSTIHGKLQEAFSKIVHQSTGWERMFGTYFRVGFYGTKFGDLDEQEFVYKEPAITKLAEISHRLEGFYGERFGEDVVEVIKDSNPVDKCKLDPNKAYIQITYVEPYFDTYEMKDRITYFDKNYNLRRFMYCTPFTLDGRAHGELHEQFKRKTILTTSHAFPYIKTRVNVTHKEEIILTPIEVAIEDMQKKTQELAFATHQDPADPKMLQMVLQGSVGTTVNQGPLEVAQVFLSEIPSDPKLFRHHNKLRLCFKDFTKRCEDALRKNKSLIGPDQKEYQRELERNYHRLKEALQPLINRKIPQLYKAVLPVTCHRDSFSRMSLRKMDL
# UniProt Q9NZN5: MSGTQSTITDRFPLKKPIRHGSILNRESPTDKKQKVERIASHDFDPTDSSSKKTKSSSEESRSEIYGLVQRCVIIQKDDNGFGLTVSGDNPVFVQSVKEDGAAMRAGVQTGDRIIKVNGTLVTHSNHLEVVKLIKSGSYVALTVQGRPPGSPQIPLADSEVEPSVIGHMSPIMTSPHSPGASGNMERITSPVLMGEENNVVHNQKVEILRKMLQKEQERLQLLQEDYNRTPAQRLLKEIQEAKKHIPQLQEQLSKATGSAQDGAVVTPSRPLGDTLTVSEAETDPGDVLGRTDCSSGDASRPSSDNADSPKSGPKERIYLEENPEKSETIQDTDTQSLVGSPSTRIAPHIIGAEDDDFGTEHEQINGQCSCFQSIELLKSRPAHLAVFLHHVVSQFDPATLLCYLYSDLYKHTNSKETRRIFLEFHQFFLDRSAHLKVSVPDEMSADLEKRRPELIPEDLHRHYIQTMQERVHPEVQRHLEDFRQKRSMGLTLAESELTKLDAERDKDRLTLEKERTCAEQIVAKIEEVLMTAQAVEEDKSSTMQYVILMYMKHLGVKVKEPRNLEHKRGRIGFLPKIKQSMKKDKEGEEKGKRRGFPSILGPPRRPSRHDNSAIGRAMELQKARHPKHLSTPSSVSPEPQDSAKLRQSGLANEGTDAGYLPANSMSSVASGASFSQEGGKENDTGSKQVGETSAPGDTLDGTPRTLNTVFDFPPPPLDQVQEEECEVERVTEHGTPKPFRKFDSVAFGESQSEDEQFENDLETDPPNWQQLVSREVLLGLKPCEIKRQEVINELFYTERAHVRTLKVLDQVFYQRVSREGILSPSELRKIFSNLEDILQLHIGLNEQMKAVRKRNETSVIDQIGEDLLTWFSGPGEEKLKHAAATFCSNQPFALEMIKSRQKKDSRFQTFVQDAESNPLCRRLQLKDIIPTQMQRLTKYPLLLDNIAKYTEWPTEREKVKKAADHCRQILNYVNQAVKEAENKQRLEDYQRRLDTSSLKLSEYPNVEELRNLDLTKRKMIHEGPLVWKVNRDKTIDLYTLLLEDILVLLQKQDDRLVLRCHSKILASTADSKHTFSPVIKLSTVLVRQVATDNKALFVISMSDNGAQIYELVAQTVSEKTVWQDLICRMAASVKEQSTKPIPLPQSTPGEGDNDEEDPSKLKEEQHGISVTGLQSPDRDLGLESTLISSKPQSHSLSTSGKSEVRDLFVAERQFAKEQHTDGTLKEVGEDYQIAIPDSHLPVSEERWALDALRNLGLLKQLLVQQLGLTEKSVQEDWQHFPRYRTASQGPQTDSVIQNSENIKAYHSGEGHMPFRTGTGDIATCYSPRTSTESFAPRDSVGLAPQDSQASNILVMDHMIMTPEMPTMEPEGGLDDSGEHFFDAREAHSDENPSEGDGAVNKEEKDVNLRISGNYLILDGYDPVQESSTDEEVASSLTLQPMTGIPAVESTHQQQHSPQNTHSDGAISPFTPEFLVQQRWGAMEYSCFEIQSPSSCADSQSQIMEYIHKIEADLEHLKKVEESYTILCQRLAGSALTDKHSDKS
# These are yes or no findings as the source states them, for the method shown. Binding seen in cells or lysates may run through a third protein. Some binding calls cover weakened binding; strength is not graded here. For some of these results: Where a sequence is shown, tags or fusion partners need not be part of it.
# How the values were obtained:
# Assay in all cases: co-IP
# [1] = molecular target: YFP-PLEKHG4B full-length (human) (UniProt Q96PX9)
# [2] = molecular target: T1, FLAG-tagged LRCH2 full-length (human) (UniProt Q5VUJ6)
# T1 sequence: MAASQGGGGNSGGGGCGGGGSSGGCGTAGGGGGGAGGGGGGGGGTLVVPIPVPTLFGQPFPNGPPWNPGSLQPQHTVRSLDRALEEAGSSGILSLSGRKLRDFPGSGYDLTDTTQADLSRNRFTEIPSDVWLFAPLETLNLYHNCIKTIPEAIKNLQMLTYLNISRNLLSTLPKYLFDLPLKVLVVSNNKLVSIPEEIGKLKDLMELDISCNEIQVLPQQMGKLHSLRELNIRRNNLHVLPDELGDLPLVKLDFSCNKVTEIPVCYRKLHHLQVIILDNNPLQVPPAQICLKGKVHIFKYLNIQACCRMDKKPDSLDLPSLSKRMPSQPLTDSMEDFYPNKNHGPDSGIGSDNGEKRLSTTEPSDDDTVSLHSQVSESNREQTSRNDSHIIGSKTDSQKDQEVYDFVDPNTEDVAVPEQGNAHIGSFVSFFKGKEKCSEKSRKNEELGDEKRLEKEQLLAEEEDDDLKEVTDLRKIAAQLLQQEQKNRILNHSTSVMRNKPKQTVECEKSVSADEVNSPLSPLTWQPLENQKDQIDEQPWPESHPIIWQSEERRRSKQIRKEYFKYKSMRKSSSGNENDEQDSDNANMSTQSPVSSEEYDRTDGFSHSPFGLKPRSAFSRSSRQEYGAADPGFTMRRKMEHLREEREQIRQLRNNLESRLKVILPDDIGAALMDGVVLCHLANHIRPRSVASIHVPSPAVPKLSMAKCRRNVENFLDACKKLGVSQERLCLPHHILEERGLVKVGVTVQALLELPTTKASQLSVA
# [3] = molecular target: T2, FLAG-LRCH4 (human) (UniProt O75427)
# T2 sequence: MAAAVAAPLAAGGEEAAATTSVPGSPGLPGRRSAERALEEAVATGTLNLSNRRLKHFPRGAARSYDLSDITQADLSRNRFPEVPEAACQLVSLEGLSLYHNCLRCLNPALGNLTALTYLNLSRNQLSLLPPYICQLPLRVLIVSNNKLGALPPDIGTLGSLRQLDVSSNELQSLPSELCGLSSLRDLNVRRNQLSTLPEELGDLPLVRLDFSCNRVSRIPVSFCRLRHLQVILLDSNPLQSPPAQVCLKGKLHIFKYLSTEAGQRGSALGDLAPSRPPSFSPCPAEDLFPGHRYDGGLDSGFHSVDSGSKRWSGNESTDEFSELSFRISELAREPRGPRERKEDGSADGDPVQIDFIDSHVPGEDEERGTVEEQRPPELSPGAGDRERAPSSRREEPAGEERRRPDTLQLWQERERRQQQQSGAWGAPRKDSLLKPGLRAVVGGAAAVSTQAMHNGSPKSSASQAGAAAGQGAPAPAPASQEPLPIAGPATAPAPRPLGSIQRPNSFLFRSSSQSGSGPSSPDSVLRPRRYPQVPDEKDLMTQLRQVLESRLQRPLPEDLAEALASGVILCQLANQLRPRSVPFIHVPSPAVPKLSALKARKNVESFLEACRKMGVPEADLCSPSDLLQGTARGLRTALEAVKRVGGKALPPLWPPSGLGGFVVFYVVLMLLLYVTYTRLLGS
# [4] = molecular target: T3, FLAG-LRCH1 (human) (UniProt Q9Y2L9)
# T3 sequence: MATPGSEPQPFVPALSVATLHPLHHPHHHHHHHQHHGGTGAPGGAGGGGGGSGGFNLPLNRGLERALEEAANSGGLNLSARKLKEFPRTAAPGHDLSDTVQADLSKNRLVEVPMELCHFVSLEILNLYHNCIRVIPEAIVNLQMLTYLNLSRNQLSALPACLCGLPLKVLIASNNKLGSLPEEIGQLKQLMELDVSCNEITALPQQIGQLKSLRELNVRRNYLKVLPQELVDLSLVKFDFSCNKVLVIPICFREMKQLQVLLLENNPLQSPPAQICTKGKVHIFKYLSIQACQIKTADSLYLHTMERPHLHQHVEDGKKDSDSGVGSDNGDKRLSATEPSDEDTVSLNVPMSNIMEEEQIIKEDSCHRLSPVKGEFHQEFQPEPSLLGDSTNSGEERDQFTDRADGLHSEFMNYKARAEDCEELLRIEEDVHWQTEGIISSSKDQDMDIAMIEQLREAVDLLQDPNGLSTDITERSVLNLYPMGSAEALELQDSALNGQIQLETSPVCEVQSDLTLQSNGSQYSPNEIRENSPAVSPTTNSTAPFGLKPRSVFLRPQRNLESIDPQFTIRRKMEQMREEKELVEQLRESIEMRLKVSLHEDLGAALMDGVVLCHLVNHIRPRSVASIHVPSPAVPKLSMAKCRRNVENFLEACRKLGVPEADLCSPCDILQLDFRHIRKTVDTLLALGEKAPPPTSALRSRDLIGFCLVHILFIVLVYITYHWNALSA
# [5] = molecular target: T4, FLAG-ARHGAP39 Y81A (human) (UniProt Q9C0H5)
# T4 sequence: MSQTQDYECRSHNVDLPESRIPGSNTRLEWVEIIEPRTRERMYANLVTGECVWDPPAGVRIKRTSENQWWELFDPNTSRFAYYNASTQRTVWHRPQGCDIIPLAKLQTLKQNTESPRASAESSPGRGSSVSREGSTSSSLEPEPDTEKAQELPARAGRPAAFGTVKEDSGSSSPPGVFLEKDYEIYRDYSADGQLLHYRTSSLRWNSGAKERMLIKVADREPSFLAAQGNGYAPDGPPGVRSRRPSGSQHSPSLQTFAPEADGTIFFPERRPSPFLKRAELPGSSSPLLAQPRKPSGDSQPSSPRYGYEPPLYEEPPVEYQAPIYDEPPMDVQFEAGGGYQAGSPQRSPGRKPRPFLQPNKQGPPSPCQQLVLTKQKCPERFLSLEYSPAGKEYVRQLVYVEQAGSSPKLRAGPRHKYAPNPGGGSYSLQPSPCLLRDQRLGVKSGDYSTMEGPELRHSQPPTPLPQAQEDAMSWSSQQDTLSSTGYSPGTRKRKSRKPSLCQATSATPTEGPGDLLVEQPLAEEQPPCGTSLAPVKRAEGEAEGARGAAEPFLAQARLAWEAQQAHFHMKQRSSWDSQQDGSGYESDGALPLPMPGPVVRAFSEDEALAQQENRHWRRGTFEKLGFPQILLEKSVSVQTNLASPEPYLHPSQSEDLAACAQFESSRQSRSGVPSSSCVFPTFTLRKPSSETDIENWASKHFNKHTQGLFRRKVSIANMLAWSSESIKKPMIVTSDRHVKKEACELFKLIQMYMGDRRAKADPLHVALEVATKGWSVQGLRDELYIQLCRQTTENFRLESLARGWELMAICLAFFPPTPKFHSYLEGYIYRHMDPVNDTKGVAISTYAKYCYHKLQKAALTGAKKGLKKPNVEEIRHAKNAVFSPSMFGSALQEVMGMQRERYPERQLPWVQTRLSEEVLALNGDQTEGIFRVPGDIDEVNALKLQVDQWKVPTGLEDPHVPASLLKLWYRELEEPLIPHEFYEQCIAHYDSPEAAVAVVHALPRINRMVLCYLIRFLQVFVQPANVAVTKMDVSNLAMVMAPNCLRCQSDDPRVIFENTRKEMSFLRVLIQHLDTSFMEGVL
# [6] = molecular target: FLAG-ARHGAP39 wild type (human) (UniProt Q9C0H5)
substance,measurement,setting,value
FLAG-ARHGEF11 full-length (from UniProt O15085 1-1522),binding,[1],binds
YFP-DOCK8 (from UniProt Q8NF50 1-2099),binding,[2],binds
mCherry-DOCK6 (from UniProt Q96HP0 1-2047),binding,[3],binds
mCherry-DOCK7 (from UniProt Q96N67 1-2140),binding,[3],binds
same,binding,[2],binds
same,binding,[4],binds
FLAG-ARHGEF12 full-length (from UniProt Q9NZN5 1-1544),binding,[1],binds
YFP-PEAK1 (from UniProt Q9H792 1-1746),binding,[5],no binding
same,binding,[6],binds
mCherry-DOCK8 (from UniProt Q8NF50 1-2099),binding,[3],binds
